Data published in patent publication US20020054941A1, “Methods and compositions to enhance tenderness and value of meat” (The Board of Regents of the University of Nebraska, priority 2000, published 2002).
Marks after values point to notes of the source that are not given here.

What was measured:
[1] = tested on: triceps brachii beef muscles; assay: Water holding capacity, pre-rigor injection of whole muscle; conditions: 200 mM, calcium chloride 300 mM
[2] = tested on: triceps brachii beef muscles; assay: R-value, pre-rigor injection of whole muscle; conditions: 200 mM, calcium chloride 300 mM
[3] = tested on: triceps brachii beef muscles; assay: Sarcomere length, pre-rigor injection of whole muscle; conditions: 72 hours after injection; 200 mM, calcium chloride 300 mM
[4] = tested on: triceps brachii beef muscles; assay: Objective color, pre-rigor injection of whole muscle; conditions: for L*value, 0 h / a*value, 0 h / b*value, 0 h: 0 h (before injection); for L*value, 0 h / L*value, 24 h / L*value, 72 h: lightness; for a*value, 0 h / a*value, 24 h: redness; for b*value, 0 h / b*value, 24 h / b*value, 72 h: yellowness; for L*value, 24 h / a*value, 24 h / b*value, 24 h / L*value, 72 h / b*value, 72 h: 200 mM, calcium chloride 300 mM
[5] = tested on: triceps brachii beef muscles; assay: Oxidation-reduction potential, pre-rigor injection of whole muscle; conditions: 200 mM, calcium chloride 300 mM
[6] = tested on: triceps brachii beef muscles; assay: NAD and NADH content, pre-rigor injection of whole muscle; conditions: for NAD, 0 h / NADH, 0 h: 0 h (before injection); for NAD, 24 h / NADH, 24 h / NAD, 72 h / NADH, 72 h: 200 mM, calcium chloride 300 mM
[7] = tested on: supraspinatus beef muscles; assay: R-value, pre-rigor injection of whole muscle; conditions: for R-value, 0 h: 0 h (before injection), ratio of hypoxantine to nucleotides; for R-value, 24 h / R-value, 72 h: 200 mM, calcium chloride 300 mM
[8] = tested on: supraspinatus beef muscles; assay: Objective color, pre-rigor injection of whole muscle; conditions: for L*value, 0 h / a*value, 0 h / b*value, 0 h: 0 h (before injection); for L*value, 0 h / L*value, 24 h / L*value, 72 h: lightness; for a*value, 0 h / a*value, 24 h / a*value, 72 h: redness; for b*value, 0 h / b*value, 24 h / b*value, 72 h: yellowness; for L*value, 24 h / a*value, 24 h / b*value, 24 h / L*value, 72 h / a*value, 72 h / b*value, 72 h: 200 mM, calcium chloride 300 mM
[9] = tested on: supraspinatus beef muscles; assay: Oxidation-reduction potential, pre-rigor injection of whole muscle; conditions: for Redox potential, 0 h: 0 h (before injection); for Redox potential, 24 h / Redox potential, 72 h: 200 mM, calcium chloride 300 mM
[10] = tested on: supraspinatus beef muscles; assay: NAD and NADH content, pre-rigor injection of whole muscle; conditions: for NAD, 0 h / NADH, 0 h: 0 h (before injection); for NAD, 24 h / NADH, 24 h / NAD, 72 h / NADH, 72 h: 200 mM, calcium chloride 300 mM
[11] = tested on: semimembranosus beef muscles; assay: Water holding capacity, pre-rigor injection of whole muscle; conditions: 200 mM, calcium chloride 300 mM
[12] = tested on: semimembranosus beef muscles; assay: R-value, pre-rigor injection of whole muscle; conditions: for R-value, 0 h: 0 h (before injection), ratio of hypoxantine to nucleotides; for R-value, 72 h: 200 mM, calcium chloride 300 mM
[13] = tested on: semimembranosus beef muscles; assay: Sarcomere length, pre-rigor injection of whole muscle; conditions: 72 hours post-mortem, 200 mM, calcium chloride 300 mM
[14] = tested on: semimembranosus beef muscles; assay: Oxidation-reduction potential, pre-rigor injection of whole muscle; conditions: for Redox potential, 0 h: 0 h (before injection); for Redox potential, 24 h / Redox potential, 72 h: 200 mM, calcium chloride 300 mM
[15] = tested on: semimembranosus beef muscles; assay: NAD and NADH content, pre-rigor injection of whole muscle; conditions: for NAD, 0 h / NADH, Oh: 0 h (before injection); for NAD, 24 h / NADH, 24 h / NAD, 72 h / NADH, 72 h: 200 mM, calcium chloride 300 mM

[Ca+2].[Cl-].[Cl-] [Calcium chloride, calcium chloride, reference compound]
WHC, 72 h (Water Holding Capacity) [1]: 40.09%
R-value, 24 h [2]: 1.31
R-value, 72 h [2]: 1.44
Sarcomere length [3]: 1.31^b μm
L*value, 0 h [4]: 21.61
a*value, 0 h [4]: 18.08
b*value, 0 h [4]: 3.45
L*value, 24 h [4]: 28.34
a*value, 24 h [4]: 27.23
b*value, 24 h [4]: 7.10
L*value, 72 h [4]: 32.14
b*value, 72 h [4]: 6.22
Redox potential, 24 h [5]: 127.10 mV
Redox potential, 72 h [5]: 134.35 mV
NAD, 0 h [6]: .425 μmol/g tissue
NADH, 0 h [6]: .080 μmol/g tissue
NAD, 24 h [6]: .193^b μmol/g tissue
NADH, 24 h [6]: .062 μmol/g tissue
NAD, 72 h [6]: .117^a μmol/g tissue
NADH, 72 h [6]: .052 μmol/g tissue
R-value, 0 h [7]: .85
R-value, 24 h [7]: 1.26
R-value, 72 h [7]: 1.43
L*value, 0 h [8]: 20.07
a*value, 0 h [8]: 18.44
b*value, 0 h [8]: 3.27
L*value, 24 h [8]: 28.41
a*value, 24 h [8]: 24.80^bc
b*value, 24 h [8]: 6.60^b
L*value, 72 h [8]: 30.86
a*value, 72 h [8]: 24.27
b*value, 72 h [8]: 6.37
Redox potential, 0 h [9]: 122.45 mV
Redox potential, 24 h [9]: 131.00 mV
Redox potential, 72 h [9]: 133.47 mV
NAD, 0 h [10]: .366 μmol/g tissue
NADH, 0 h [10]: .074 μmol/g tissue
NAD, 24 h [10]: .152^ab μmol/g tissue
NADH, 24 h [10]: .066 μmol/g tissue
NAD, 72 h [10]: .089^ab μmol/g tissue
NADH, 72 h [10]: .041^ab μmol/g tissue
WHC, 72 h (Water Holding Capacity) [11]: 41.71%
R-value, 0 h [12]: .83
R-value, 72 h [12]: 1.45
Sarcomere length [13]: 1.48^c μm
Sarcomere length ([13]; listed as CaCl2): 1.48 μm
Redox potential, 0 h [14]: 120.10 mV
Redox potential, 24 h [14]: 129.97^a mV
Redox potential, 72 h [14]: 127.92^c mV
NAD, 0 h [15]: .525 μmol/g tissue
NADH, Oh [15]: .126 μmol/g tissue
NAD, 24 h [15]: .328^ab μmol/g tissue
NADH, 24 h [15]: .073^a μmol/g tissue
NAD, 72 h [15]: .118^bc μmol/g tissue
NADH, 72 h [15]: .054^ab μmol/g tissue

CC(=O)[O-].[Na+] [Sodium acetate, sodium acetate]
WHC, 72 h (Water Holding Capacity) [1]: 36.36%
R-value, 24 h [2]: 1.31
R-value, 72 h [2]: 1.40
Sarcomere length [3]: 1.53^b μm
L*value, 0 h [4]: 17.72
a*value, 0 h [4]: 15.70
b*value, 0 h [4]: 2.88
L*value, 24 h [4]: 28.37
a*value, 24 h [4]: 25.08
b*value, 24 h [4]: 6.55
L*value, 72 h [4]: 31.36
b*value, 72 h [4]: 6.38
Redox potential, 24 h [5]: 129.13 mV
Redox potential, 72 h [5]: 139.27 mV
NAD, 0 h [6]: .442 μmol/g tissue
NADH, 0 h [6]: .087 μmol/g tissue
NAD, 24 h [6]: .258^a μmol/g tissue
NADH, 24 h [6]: .076 μmol/g tissue
NAD, 72 h [6]: .141^a μmol/g tissue
NADH, 72 h [6]: .059 μmol/g tissue
R-value, 0 h [7]: .84
R-value, 24 h [7]: 1.30
R-value, 72 h [7]: 1.41
L*value, 0 h [8]: 20.75
a*value, 0 h [8]: 15.69
b*value, 0 h [8]: 2.69
L*value, 24 h [8]: 31.37
a*value, 24 h [8]: 22.65^ab
b*value, 24 h [8]: 6.14^ab
L*value, 72 h [8]: 33.68
a*value, 72 h [8]: 21.67
b*value, 72 h [8]: 6.16
Redox potential, 0 h [9]: 121.53 mV
Redox potential, 24 h [9]: 130.37 mV
Redox potential, 72 h [9]: 134.90 mV
NAD, 0 h [10]: .355 μmol/g tissue
NADH, 0 h [10]: .073 μmol/g tissue
NAD, 24 h [10]: .212^a μmol/g tissue
NADH, 24 h [10]: .064 μmol/g tissue
NAD, 72 h [10]: .113^a μmol/g tissue
NADH, 72 h [10]: .058^c μmol/g tissue
WHC, 72 h (Water Holding Capacity) [11]: 39.35%
R-value, 0 h [12]: .82
R-value, 72 h [12]: 1.39
Sarcomere length [13]: 1.74^ab μm
Redox potential, 0 h [14]: 122.35 mV
Redox potential, 24 h [14]: 134.20^a mV
Redox potential, 72 h [14]: 142.75^a mV
NAD, 0 h [15]: .582 μmol/g tissue
NADH, Oh [15]: .124 μmol/g tissue
NAD, 24 h [15]: .410^a μmol/g tissue
NADH, 24 h [15]: .090^b μmol/g tissue
NAD, 72 h [15]: .192^a μmol/g tissue
NADH, 72 h [15]: .079^c μmol/g tissue
